Experimental data reported in the supplement of paper PMC10060354, “Discovery of a small molecule ligand of FRS2 that inhibits invasion and tumor growth” (Cellular Oncology, 2022).
Many values rest on one well or one pass, so single values are uncertain.

Protein sequences, listed by entry. Tags and fused reporters are not part of them. Lines headed by an entry give the natural chain unless they say otherwise; changes in a name come on top.
UniProt Q96HH6: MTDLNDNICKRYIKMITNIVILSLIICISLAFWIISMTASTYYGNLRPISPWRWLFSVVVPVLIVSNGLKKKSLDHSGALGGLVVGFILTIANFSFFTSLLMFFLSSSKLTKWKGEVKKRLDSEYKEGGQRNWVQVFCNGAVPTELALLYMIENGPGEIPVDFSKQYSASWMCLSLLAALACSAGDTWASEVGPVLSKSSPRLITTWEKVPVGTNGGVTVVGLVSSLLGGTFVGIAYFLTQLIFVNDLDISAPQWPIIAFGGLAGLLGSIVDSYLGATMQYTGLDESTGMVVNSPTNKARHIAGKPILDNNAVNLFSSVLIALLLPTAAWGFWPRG
UniProt P32119: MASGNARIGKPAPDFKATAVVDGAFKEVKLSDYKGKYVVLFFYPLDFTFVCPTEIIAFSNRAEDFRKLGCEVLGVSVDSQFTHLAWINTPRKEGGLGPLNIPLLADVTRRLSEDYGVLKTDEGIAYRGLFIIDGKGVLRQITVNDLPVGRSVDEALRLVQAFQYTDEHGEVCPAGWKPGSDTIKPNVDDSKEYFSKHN
UniProt Q96GA7: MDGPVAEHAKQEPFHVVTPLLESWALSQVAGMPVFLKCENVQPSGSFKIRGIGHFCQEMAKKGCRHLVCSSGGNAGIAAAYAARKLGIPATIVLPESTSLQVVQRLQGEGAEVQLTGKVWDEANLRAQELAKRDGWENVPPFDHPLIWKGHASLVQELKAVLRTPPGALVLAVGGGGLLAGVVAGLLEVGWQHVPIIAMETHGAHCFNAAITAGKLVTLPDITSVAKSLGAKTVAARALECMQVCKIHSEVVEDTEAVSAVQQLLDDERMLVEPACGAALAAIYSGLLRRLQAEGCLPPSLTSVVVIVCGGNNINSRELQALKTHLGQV
UniProt Q9H9H4: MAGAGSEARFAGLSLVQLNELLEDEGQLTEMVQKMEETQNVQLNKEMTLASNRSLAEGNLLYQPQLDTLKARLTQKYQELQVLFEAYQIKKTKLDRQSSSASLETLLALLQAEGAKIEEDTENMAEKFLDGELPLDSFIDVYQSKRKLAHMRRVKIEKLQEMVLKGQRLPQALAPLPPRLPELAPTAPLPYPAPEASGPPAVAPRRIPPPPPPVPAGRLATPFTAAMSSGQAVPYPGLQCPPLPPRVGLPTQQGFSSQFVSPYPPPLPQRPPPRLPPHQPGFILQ
UniProt Q9NVX7: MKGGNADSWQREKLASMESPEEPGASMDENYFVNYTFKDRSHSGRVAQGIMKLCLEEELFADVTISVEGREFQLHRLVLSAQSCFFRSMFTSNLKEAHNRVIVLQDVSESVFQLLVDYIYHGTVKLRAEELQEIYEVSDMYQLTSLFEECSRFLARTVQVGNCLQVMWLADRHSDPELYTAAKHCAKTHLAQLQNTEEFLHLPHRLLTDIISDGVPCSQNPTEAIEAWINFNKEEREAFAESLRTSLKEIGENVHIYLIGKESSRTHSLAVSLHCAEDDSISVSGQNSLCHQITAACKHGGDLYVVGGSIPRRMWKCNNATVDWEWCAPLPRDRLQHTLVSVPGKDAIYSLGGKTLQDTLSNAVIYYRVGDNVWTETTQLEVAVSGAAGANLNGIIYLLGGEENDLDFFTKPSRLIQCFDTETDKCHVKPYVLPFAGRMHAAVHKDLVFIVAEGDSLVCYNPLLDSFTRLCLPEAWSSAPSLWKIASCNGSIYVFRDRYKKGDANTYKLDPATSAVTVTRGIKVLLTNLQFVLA
UniProt P32455: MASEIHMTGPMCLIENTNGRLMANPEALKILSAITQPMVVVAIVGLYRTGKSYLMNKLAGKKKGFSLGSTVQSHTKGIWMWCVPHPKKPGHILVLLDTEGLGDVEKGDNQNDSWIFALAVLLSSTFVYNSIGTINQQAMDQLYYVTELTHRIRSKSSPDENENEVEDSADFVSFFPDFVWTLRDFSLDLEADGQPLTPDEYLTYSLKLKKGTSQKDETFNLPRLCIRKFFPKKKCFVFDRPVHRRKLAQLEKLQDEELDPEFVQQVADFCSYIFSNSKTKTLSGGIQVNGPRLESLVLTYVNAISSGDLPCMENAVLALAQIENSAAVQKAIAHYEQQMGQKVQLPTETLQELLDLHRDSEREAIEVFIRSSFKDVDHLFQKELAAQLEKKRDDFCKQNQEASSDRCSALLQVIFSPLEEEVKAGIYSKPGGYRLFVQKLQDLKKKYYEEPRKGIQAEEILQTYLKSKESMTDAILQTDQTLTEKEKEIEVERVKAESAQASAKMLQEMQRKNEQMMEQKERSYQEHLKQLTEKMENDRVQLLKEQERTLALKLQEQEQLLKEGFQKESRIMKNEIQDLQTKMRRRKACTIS
UniProt P55263: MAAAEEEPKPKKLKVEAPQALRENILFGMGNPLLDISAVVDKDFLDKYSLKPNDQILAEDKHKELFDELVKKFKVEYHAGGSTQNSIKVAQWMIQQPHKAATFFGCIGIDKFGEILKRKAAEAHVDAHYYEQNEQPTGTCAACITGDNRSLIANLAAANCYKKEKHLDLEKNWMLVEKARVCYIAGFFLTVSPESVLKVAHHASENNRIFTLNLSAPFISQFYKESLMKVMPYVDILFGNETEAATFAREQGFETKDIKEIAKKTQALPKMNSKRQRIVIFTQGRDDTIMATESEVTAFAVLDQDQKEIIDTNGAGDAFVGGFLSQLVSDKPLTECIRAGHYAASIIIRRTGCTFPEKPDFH
UniProt Q9UKA4: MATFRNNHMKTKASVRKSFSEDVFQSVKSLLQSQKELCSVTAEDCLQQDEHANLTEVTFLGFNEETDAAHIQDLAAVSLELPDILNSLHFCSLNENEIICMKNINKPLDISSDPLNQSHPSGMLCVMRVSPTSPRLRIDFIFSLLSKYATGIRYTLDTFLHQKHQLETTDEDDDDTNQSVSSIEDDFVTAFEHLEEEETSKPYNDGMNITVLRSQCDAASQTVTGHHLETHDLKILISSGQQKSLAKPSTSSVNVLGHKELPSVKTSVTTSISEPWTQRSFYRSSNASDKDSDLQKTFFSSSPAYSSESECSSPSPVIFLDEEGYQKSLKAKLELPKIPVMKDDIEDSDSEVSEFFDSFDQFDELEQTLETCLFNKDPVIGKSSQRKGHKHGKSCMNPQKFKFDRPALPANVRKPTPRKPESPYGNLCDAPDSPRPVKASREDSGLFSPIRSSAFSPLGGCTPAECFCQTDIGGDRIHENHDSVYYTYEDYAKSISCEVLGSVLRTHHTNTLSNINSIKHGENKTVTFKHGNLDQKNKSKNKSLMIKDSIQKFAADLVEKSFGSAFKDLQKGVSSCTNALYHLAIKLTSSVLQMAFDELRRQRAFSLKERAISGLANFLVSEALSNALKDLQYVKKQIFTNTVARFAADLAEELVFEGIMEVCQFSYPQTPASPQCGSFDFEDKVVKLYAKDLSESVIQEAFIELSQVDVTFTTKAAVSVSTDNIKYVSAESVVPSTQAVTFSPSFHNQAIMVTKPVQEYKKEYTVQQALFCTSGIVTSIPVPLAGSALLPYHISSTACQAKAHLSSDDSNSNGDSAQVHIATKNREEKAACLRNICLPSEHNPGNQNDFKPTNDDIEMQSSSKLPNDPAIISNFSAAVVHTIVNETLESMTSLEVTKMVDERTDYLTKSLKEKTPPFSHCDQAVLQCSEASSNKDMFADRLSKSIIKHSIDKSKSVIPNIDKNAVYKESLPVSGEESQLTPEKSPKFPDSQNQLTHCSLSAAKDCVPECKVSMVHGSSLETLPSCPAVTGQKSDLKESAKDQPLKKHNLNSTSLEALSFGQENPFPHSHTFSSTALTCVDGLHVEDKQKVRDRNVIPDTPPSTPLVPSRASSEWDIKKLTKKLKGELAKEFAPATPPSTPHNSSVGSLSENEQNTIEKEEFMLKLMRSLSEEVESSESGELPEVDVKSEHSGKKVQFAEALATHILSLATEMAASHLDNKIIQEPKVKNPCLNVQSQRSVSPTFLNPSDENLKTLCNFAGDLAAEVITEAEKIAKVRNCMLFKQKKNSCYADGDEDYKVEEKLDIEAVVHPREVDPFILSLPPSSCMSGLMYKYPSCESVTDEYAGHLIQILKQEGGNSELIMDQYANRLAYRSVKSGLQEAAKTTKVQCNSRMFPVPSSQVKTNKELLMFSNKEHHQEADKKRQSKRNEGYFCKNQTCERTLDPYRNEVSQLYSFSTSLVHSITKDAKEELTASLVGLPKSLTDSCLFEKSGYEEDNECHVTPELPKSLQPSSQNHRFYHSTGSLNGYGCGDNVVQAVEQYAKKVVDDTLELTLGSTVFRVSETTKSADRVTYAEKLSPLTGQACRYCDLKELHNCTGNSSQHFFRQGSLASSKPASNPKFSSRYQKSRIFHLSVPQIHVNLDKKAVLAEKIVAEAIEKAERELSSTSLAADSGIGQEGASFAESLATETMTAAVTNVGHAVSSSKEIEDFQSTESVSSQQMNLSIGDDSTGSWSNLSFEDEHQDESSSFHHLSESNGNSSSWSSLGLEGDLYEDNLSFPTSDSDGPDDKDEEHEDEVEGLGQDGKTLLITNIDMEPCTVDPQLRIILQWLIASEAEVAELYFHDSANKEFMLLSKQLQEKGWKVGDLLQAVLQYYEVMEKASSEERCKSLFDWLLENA
UniProt O43292: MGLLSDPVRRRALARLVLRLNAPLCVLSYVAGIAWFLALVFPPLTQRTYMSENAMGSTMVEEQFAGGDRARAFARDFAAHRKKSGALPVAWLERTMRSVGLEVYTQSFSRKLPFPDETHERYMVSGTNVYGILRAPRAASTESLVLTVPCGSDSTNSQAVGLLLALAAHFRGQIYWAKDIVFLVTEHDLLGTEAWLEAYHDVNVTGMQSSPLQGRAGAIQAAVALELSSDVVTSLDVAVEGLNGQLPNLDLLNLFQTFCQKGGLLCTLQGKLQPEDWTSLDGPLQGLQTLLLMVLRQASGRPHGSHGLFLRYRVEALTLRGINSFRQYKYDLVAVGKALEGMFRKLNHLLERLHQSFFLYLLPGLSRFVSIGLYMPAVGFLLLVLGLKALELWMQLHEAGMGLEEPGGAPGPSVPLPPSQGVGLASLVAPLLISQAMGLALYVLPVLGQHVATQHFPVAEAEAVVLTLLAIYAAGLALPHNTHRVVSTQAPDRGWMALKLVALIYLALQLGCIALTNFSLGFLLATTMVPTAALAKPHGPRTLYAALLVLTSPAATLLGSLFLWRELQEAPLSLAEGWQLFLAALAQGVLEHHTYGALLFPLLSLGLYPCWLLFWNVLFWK
UniProt Q9H2V7: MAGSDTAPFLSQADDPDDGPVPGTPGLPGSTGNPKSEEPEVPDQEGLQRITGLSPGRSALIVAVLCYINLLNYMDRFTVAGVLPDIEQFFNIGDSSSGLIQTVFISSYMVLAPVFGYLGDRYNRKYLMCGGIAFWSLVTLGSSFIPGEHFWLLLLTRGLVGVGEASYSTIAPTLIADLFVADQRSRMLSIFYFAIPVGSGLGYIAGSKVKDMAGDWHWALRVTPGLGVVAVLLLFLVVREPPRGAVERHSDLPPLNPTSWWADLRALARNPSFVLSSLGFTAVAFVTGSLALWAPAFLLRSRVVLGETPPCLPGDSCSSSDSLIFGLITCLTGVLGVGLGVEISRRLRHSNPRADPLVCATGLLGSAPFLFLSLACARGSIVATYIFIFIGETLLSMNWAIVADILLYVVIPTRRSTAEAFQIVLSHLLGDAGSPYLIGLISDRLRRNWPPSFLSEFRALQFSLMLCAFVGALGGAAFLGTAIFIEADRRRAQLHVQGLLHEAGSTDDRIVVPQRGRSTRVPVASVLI
UniProt O95298, whole entry: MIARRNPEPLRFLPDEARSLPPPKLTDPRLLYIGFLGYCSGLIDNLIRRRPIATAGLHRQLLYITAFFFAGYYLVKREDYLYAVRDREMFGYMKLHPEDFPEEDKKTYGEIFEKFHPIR
UniProt P43307: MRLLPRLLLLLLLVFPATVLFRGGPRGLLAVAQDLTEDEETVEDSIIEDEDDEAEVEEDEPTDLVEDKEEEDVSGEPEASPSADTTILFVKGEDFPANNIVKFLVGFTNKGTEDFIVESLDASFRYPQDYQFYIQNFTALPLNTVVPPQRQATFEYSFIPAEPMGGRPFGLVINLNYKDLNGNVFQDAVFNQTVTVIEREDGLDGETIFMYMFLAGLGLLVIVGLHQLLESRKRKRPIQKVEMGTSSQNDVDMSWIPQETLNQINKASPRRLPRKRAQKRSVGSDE
UniProt Q6P1Q9: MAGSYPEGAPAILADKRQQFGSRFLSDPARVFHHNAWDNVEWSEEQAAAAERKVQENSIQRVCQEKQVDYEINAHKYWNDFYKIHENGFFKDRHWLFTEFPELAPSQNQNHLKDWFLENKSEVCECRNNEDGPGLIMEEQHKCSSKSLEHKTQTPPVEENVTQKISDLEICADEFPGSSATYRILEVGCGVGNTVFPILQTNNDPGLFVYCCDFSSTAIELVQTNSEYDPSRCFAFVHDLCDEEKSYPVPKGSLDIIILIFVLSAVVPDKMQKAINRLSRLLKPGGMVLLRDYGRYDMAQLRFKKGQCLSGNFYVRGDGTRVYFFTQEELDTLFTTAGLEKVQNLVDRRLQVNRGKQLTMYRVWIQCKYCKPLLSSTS

Compound: [O-][N+](C(C1=C(C(O)=C2)NC(C(C=C3)=CC=C3Cl)C4C1C=CC4)=C2Cl)=O
Test: melting temperature shift (compound 7 minus DMSO); higher = compound stabilises the protein
Conditions: 10 µM
Protocol: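 Thermal proteome profiling (TMT mass spectrometry) in intact DAOY medulloblastoma cells or DAOY lysates treated with 10 µM compound 7 or DMSO, heated at 10 temperatures from 40.5 to 73.8 °C for 3 min. Melting curves were fitted with the Bioconductor TPP package, and the melting point difference between compound and vehicle is reported per protein (single curve per condition).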

[1] = system: intact DAOY cells, treatment time: 90 min, 37 °C
[2] = system: DAOY cell lysate, treatment time: 20 min, 4 °C

Row | Target | melting temperature shift [1] [°C] | melting temperature shift [2] [°C]
1 | UniProt Q96HH6 | -0.219 | 
2 | PRDX2 (UniProt P32119) | 0.541 | -0.558
3 | SDSL (UniProt Q96GA7) | -2.39 | 0.0842
4 | VPS37B (UniProt Q9H9H4) | 0.289 | 
5 | UniProt Q567V2 |  | 0.436
6 | KBTBD4 (UniProt Q9NVX7) |  | -0.938
7 | UniProt P32455 | 0.207 | 0.0728
8 | ADK (UniProt P55263) | -1.73 | -0.546
9 | BCL10 (UniProt O95999) | 0.194 | -2.46
10 | AKAP11 (UniProt Q9UKA4) |  | -0.503
11 | GPAA1 (UniProt O43292) | -1.09 | 0.689
12 | SPNS1 (UniProt Q9H2V7) |  | 7.51
13 | NDUFC2 (UniProt O95298) | 1.37 | 1.37
14 | SSR1 (UniProt P43307) | -1.06 | 1.19
15 | METTL2B (UniProt Q6P1Q9) | 0.283 | -1
